This is one part of the list.

Chains of the proteins cited; added tags and fusions are not shown.
UniProt Q0JBA9, entry or part of it: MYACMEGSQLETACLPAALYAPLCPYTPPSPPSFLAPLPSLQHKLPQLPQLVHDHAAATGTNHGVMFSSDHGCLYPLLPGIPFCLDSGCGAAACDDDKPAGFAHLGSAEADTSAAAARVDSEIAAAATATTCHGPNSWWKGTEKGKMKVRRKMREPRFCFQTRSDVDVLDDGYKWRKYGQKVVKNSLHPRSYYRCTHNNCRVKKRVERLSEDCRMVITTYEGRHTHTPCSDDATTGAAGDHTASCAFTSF

This test deals with OsWRKY34 (Oryza sativa, UniProt Q0JBA9 1-250). The experiment in a line: protein-binding microarray (RPBM); PBS, 2% BSA, 51.3 ng/ul salmon testes DNA, 50 uM zinc acetate, 200 nM TF, 25 C, 1 h; high values mean tight binding. The conditions noted are these: protein: recombinant; tags: N-terminal polyhistidine and DsRed monomer fusion (pET32a); label: CyDye5-dUTP incorporated in the synthesized complementary strand; 3' TTTTT single-stranded linker to array surface; dsDNA, one strand shown. An outline of the steps: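 In PBS with 2% BSA, salmon testes DNA and 50 µM zinc acetate, 200 nM protein was incubated on a custom Agilent array at 25 °C for 1 h and then washed off. The array had been made double-stranded by primer extension with Cy5-dUTP and blocked with 2% BSA. The proteins were transcription factors fused N-terminally to polyhistidine and DsRed, expressed in E. coli BL21-CodonPlus and purified on Ni–NTA. The binding signal is per-feature fluorescence intensity (arbitrary units) from an Axon 4000B scanner.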
Regarding “AGTACCTTGCAATGCCTATAATGTCTGTATCTGTTATTGTCGGAGTCACCTAGTGCAG”, the binding signal is 9050 fluorescence intensity (a.u.).

Consider “CCTTTCGTTTTGTACAGTTTGCTCATCTATTCAATGAAATCGGAGTCACCTAGTGCAG”, for which the binding signal is 8190 fluorescence intensity (a.u.).

Take “ATTGTCCATTCCACTATTCCAGTATTCCACCACGCGCTGCCGGAGTCACCTAGTGCAG”: the binding signal was 10700 fluorescence intensity (a.u.).

Take “TCCGTAGACCCGAGACACCCGACCCGACCTCGCCGCATCCCGGAGTCACCTAGTGCAG”: the binding signal was 9910 fluorescence intensity (a.u.).

On to “TTTGTTCTTGGCAGACTATTGGCCTATCAGCTATCCAACTCGGAGTCACCTAGTGCAG”, for which the binding signal was 8740 fluorescence intensity (a.u.).

Turning to “GGGTGTCATATAGGTCCAAGCGGGCTCCAAGTCGCTCCGTCGGAGTCACCTAGTGCAG”, the binding signal was 8460 fluorescence intensity (a.u.).

“TTTTTTTTCATTTTTTTCTCTTAATTAATTACTCCATCCGCGGAGTCACCTAGTGCAG”: the binding signal is 9070 fluorescence intensity (a.u.).

On to “CTAGTAATTTACTTATTAGTACCTGTGTAGTATTATCTATCGGAGTCACCTAGTGCAG”, for which the binding signal was 8580 fluorescence intensity (a.u.).

Take “CCCACATGTCATGTCTCTTCCTACCCGGTCGCTCGCTCGCCGGAGTCACCTAGTGCAG”: the binding signal is 10500 fluorescence intensity (a.u.).

With “TTCTCCTGTTGCCCTATGGTCCCACTCTGCTAGTCTGCTTCGGAGTCACCTAGTGCAG”, the binding signal is 12400 fluorescence intensity (a.u.).

With “GTACAAGCAATTCCACTGCACCTCTTGTGTTAGTAAAACCCGGAGTCACCTAGTGCAG”, the binding signal was 10200 fluorescence intensity (a.u.).

“AAATTTTTCATCCTATCACATCGAACATTTGAACATCTACCGGAGTCACCTAGTGCAG”: the binding signal was 11400 fluorescence intensity (a.u.).

Turning to “AACCCTTCAACGCGAACTGGATAGAGTCGAACACCTTCGTCGGAGTCACCTAGTGCAG”, the binding signal is 8160 fluorescence intensity (a.u.).

On to “TTTATCTCGTAGTTATTTTGTTATTACACTACGTTTAATACGGAGTCACCTAGTGCAG”, for which the binding signal was 8720 fluorescence intensity (a.u.).

For the sequence “TTATTTTTTTCCTTATTTTGTATGGCAATCGTTTTTTCCTCGGAGTCACCTAGTGCAG”, the binding signal is 9260 fluorescence intensity (a.u.).

With “GCAGGCTCTGAACTTGGTACGGTTGATGATTATTTTTATTCGGAGTCACCTAGTGCAG”, the binding signal was 10500 fluorescence intensity (a.u.).

With “AACAGGCATGGTTTCCTTCGTCGTTTCTACTAGCAGTTGCCGGAGTCACCTAGTGCAG”, the binding signal was 11900 fluorescence intensity (a.u.).

Take “TGATGCATAGTGGGGAGAAGGGATGTGATGATGATGAACCCGGAGTCACCTAGTGCAG”: the binding signal is 8420 fluorescence intensity (a.u.).

For “TTCGTCTCCGATCGATGCCTCGCCTGACTCGCATGAGGGGCGGAGTCACCTAGTGCAG”, the binding signal is 8320 fluorescence intensity (a.u.).

In the case of “TGGATTGGCTCGAGAATGTTTTTTATTTCCTTTGACAGGACGGAGTCACCTAGTGCAG”, the binding signal is 8600 fluorescence intensity (a.u.).

With “CCCGCCGCCGCCGCCACCACCGCAGCTGCGCCGCTTCAAGCGGAGTCACCTAGTGCAG”, the binding signal is 9360 fluorescence intensity (a.u.).

Consider “ATCCTAAGTTTTCTCCTCGTTAGGGTTGGTTGAGTGAATCCGGAGTCACCTAGTGCAG”, for which the binding signal is 8790 fluorescence intensity (a.u.).

Regarding “CTTGTGACCTACGCCCTCTACGCTCTCATCCCTCTCGCCCCGGAGTCACCTAGTGCAG”, the binding signal is 9780 fluorescence intensity (a.u.).

As to “GCCGCGCGCCACTTCGCCACCGCGCCGCGCGGCGCTCATCCGGAGTCACCTAGTGCAG”, the binding signal was 11400 fluorescence intensity (a.u.).

With “GTTAATTTGAGTGTGCTTGATTTCCTTCGGCCATTGTTCTCGGAGTCACCTAGTGCAG”, the binding signal is 9060 fluorescence intensity (a.u.).

“TGGTTTTCTCTTTTCTAGTGTATAGTTGTATATAAATTAACGGAGTCACCTAGTGCAG”: the binding signal is 8250 fluorescence intensity (a.u.).

Turning to “CGGCCGCCGGACCTCCTCTCCCACCTCGCACCGTCGATCTCGGAGTCACCTAGTGCAG”, the binding signal was 10100 fluorescence intensity (a.u.).

In the case of “TTGTTGACCGAGCACGGTCCCATACATGTTACATCTCATCCGGAGTCACCTAGTGCAG”, the binding signal was 10700 fluorescence intensity (a.u.).

As for “GACTACTGAATTTTTCTTGCTCTTTTGTTGTTCTAAAGTCCGGAGTCACCTAGTGCAG”, the binding signal was 11000 fluorescence intensity (a.u.).

Regarding “TGCATCTCTGATTTGTAGTGAATGGGTCAAATGCTTTTGACGGAGTCACCTAGTGCAG”, the binding signal is 8310 fluorescence intensity (a.u.).

Regarding “GTCGTACTCGCGTCGTTCTCTTCTCCTTCCCTTCCCAGCACGGAGTCACCTAGTGCAG”, the binding signal is 9630 fluorescence intensity (a.u.).

Take “CATATTGTAGTTCTTCATCCGACTTACTTCGATTCATTGACGGAGTCACCTAGTGCAG”: the binding signal was 8550 fluorescence intensity (a.u.).

As to “GCTACTATCCGTTCTATCGTTTAGTTTTTCTTTGAGAACCCGGAGTCACCTAGTGCAG”, the binding signal was 9860 fluorescence intensity (a.u.).

For “ATTATATGGTTGTGGGTCCCATTTTAGAGTTGGGAGGGCTCGGAGTCACCTAGTGCAG”, the binding signal is 8100 fluorescence intensity (a.u.).

Turning to “GTGATACATGCTGACGTCTTATTTGATATGCCATAAATATCGGAGTCACCTAGTGCAG”, the binding signal was 11300 fluorescence intensity (a.u.).

As for “CATATGTTTTGTTTTGCTTTGGGGCTTTTAGTAGTAGTTCCGGAGTCACCTAGTGCAG”, the binding signal was 9460 fluorescence intensity (a.u.).

For “CTGCTTACAATATTTGACCATTCGTTTTATTTGAAAAATTCGGAGTCACCTAGTGCAG”, the binding signal was 11000 fluorescence intensity (a.u.).

Consider “TTTTGAGGATTTTTTTTTCGAGGTGGTTTTGTTTGCCTCTCGGAGTCACCTAGTGCAG”, for which the binding signal is 8700 fluorescence intensity (a.u.).

In the case of “CTTGCAATCGTCCGGCCTCCATCATCTCTTTATCAATTTGCGGAGTCACCTAGTGCAG”, the binding signal was 8410 fluorescence intensity (a.u.).

Take “AGTATCTTTGCCATTTGACCTACATTTGACCTATACGTACCGGAGTCACCTAGTGCAG”: the binding signal is 11000 fluorescence intensity (a.u.).

Consider “ACTTATCCCATCAATCACTTCTAATTTAAATTTGTCTCTTCGGAGTCACCTAGTGCAG”, for which the binding signal was 11000 fluorescence intensity (a.u.).

“GGGAGATGGGGTTCAAAGCGAGGGAGGGTGGTGGCCTCTTCGGAGTCACCTAGTGCAG”: the binding signal was 10700 fluorescence intensity (a.u.).

These data come from article PMC7819943, “Rice protein-binding microarrays: a tool to detect cis-acting elements near promoter regions in rice”.
